# Cleaved PARP in drug-treated melanoma cells

From a melanoma drug combination screen (doi:10.1371/journal.pone.0140310); values rounded.

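Human melanoma cells were exposed to a pair of drugs for 72 h in 1,536-well plates and read by automated microscopy after fixing and staining. Values are the share of nuclei positive for cleaved PARP as a percentage of the same share in the DMSO control: 100 is the control level, higher means more apoptosis. Concentrations were fixed for each drug; these are the higher of two levels. No replicate spread is given; individual values may be noisy. Basal and induced levels differ widely between cell lines.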
This is part of the screen, not chosen by result.
An entry leaves out what has no value listed here.

Drugs:
STA-4783, 0.03 µM: CN(NC(=O)CC(=O)NN(C)C(=S)c1ccccc1)C(=S)c1ccccc1
PD173074, 0.5 µM: CCN(CC)CCCCNc1ncc2cc(-c3cc(OC)cc(OC)c3)c(NC(=O)NC(C)(C)C)nc2n1
ZM336372, 10 µM: Cc1ccc(NC(=O)c2cccc(N(C)C)c2)cc1NC(=O)c1ccc(O)cc1
tanespimycin, 0.01 µM: C=CCNC1=C2C[C@@H](C)C[C@H](OC)[C@H](O)[C@@H](C)/C=C(\C)[C@H](OC(N)=O)[C@@H](OC)/C=C\C=C(/C)C(=O)NC(=CC1=O)C2=O

Results for PD173074 and STA-4783 are MZ2-MEL: 35.9; C32: 770; COLO 792: 888; A375: 96.3; UACC-257: 21.6; WM115: 715; MEL-HO: 96.3; SK-MEL-28: 114; COLO 829: 353; WM451Lu: 216; SK-MEL-30: 89.9; COLO 800: 85.8; G-361: 121; A101D: 71.1; IST-MEL1: 56.2; A2058: 2210; LB2518-MEL: 178; 501mel: 987; IPC-298: 107; WM3526: 90.1; WM3619: 1950; RPMI-7951: 73.3; WM1745: 555; SK-MEL-2: 60.5; LOX IMVI: 126; UACC-62: 431; WM1716: 46.5; SK-MEL-5: 145; MeWo: 540; RVH-421: 251. With STA-4783 and ZM336372 the screen read MZ2-MEL: 110; C32: 2160; COLO 792: 836; UACC-257: 35.2; WM115: 1180; MEL-HO: 101; SK-MEL-28: 248; COLO 829: 550; WM451Lu: 56.3; SK-MEL-30: 146; COLO 800: 322; G-361: 363; A101D: 473; IST-MEL1: 290; A2058: 2300; LB2518-MEL: 284; IPC-298: 151; WM3526: 317; WM3619: 897; RPMI-7951: 185; WM1745: 283; SK-MEL-2: 101; LOX IMVI: 180; UACC-62: 300; WM1716: 241; SK-MEL-5: 115; MeWo: 3210; RVH-421: 143. For STA-4783 and tanespimycin the values were MZ2-MEL: 247; C32: 2820; COLO 792: 644; UACC-257: 40.0; WM115: 3360; MEL-HO: 169; SK-MEL-28: 365; COLO 829: 403; WM451Lu: 506; SK-MEL-30: 59.6; COLO 800: 245; G-361: 437; A101D: 346; IST-MEL1: 941; A2058: 1390; LB2518-MEL: 2290; IPC-298: 106; WM3526: 192; WM3619: 1130; RPMI-7951: 268; WM1745: 193; SK-MEL-2: 66.8; LOX IMVI: 89.5; UACC-62: 140; WM1716: 20.2; SK-MEL-5: 188; MeWo: 1960; RVH-421: 737. PD173074 and ZM336372 gave MZ2-MEL: 105; C32: 165; COLO 792: 34.7; A375: 77.8; UACC-257: 47.0; WM115: 131; MEL-HO: 81.9; SK-MEL-28: 28.9; COLO 829: 117; WM451Lu: 92.0; SK-MEL-30: 97.6; COLO 800: 147; G-361: 70.6; A101D: 93.0; IST-MEL1: 157; A2058: 97.8; LB2518-MEL: 64.6; 501mel: 160; IPC-298: 90.3; WM3526: 87.3; WM3619: 84.1; RPMI-7951: 85.6; WM1745: 108; SK-MEL-2: 79.4; LOX IMVI: 251; UACC-62: 85.8; WM1716: 95.9; SK-MEL-5: 80.0; MeWo: 63.8; RVH-421: 104. Results for PD173074 and tanespimycin are MZ2-MEL: 299; C32: 431; COLO 792: 108; A375: 93.2; UACC-257: 24.5; WM115: 1030; MEL-HO: 248; SK-MEL-28: 111; COLO 829: 141; WM451Lu: 280; SK-MEL-30: 125; COLO 800: 122; G-361: 155; A101D: 46.7; IST-MEL1: 82.8; A2058: 117; LB2518-MEL: 181; 501mel: 49.9; IPC-298: 248; WM3526: 181; WM3619: 178; RPMI-7951: 474; SK-MEL-2: 154; LOX IMVI: 377; UACC-62: 238; WM1716: 103; SK-MEL-5: 174; MeWo: 99.7; RVH-421: 154.

tanespimycin and ZM336372 gave MZ2-MEL: 273; C32: 680; COLO 792: 98.7; UACC-257: 65.3; WM115: 756; MEL-HO: 72.8; SK-MEL-28: 153; COLO 829: 129; WM451Lu: 109; SK-MEL-30: 36.9; COLO 800: 82.6; G-361: 114; A101D: 114; IST-MEL1: 72.7; A2058: 125; LB2518-MEL: 310; IPC-298: 135; WM3526: 287; WM3619: 187; RPMI-7951: 251; WM1745: 138; SK-MEL-2: 186; LOX IMVI: 147; UACC-62: 133; WM1716: 98.4; SK-MEL-5: 89.7; MeWo: 41.7; RVH-421: 152.